In all, about 390,000 compounds went through this assay and about 610 (0.16%) were called active. Inconclusive results, whose numbers are uncertain, are shown with a selection of clear calls. Calls come from the whole dose curve; as a rule, active = well fitted inhibition curve with a large enough effect; inconclusive = small, poorly fitted or top-dose-only effect, or effect the other way, or another doubt; inactive = no such curve, though single readings can be large or run the other way. A potency beside an inconclusive call is a rough fit, not a confirmed value.
experiment: Nrf2 qHTS screen for inhibitors: counterscreen for cytotoxicity; conditions: A549 ARE-Fluc cells, CellTiter-Fluor viability, 18-24 h; activity change, negative = cytotoxicity: at 46 µM (top of the series)
Outline: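 A549 ARE_Fluc cells in 5% FBS OPTI-MEM were exposed to compounds in concentration-response for 18-24 h at 37 deg C. Viability was read by CellTiter-Fluor fluorescence (Ex 405/Em 525) after 30 min, before the luciferase read.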
% is set by controls: 0 for no effect and ±100 for the full control effect; potency is the fitted concentration of half-maximal effect.

For COc1ccc(C)cc1NC(=O)Cn1cc(S(=O)(=O)Cc2ccccc2Cl)c2ccccc21, which “activity change, negative = cytotoxicity” value is on record?
The value was inactive: -6.65%.

Which Potency does the source give for COc1ccc(NC(=O)Cn2nnc(C(=O)NCc3cccs3)c2N)c(OC)c1 here?
Its Potency is inconclusive: 23.1 µM [falling, partial curve, poor fit].

For COc1ccc(OC)c(-c2cc(C(=O)N3CCc4ccccc4C3)no2)c1, which Potency is on record?
Its Potency is inconclusive: 0.58 µM [activator, partial curve, poor fit].

Which Potency does the source give for CCS(=O)(=O)NCCNc1ccc([N+](=O)[O-])cc1 here?
The Potency was inconclusive: 18.4 µM [falling, single point].

With Cc1cccc(-n2nnnc2SCC(=O)NCC2CCCO2)c1 (centres undefined) as the molecule, how does the “activity change, negative = cytotoxicity” value read?
The value was inactive: 4.67%.

Which Potency does the source give for Cc1ccc(Cn2c(CCCNC(=O)C3CCCCC3)nc3ccccc32)cc1 here?
The Potency was inconclusive: 23.1 µM [falling, single point].

For CCCC(=O)OCCNc1cc(Sc2nc3ccccc3[nH]2)c2nonc2c1[N+](=O)[O-], which Potency is on record?
The Potency was inconclusive: 16.4 µM [falling, partial curve, poor fit].

Which Potency does the source give for O=C(c1ccc2c3c(cccc13)C(=O)N(O)C2=O)N1CCCCC1 here?
The Potency was inconclusive: 18.4 µM [falling, partial curve, poor fit].

With Oc1ccc(NCc2ccc(OCc3ccccc3Cl)cc2)cc1 as the molecule, how does the Potency read?
Its Potency is inconclusive: 32.6 µM [falling, partial curve, poor fit].

Which Potency does the source give for CCCCN1CCc2nc(N3CCN(C)CC3)ncc2C1 here?
Its Potency is inconclusive: 18.4 µM [falling, single point].

With Cc1nn(C2CC(O)C(O)C(CO)O2)c(=O)[nH]c1=O (centres undefined) as the molecule, how does the “activity change, negative = cytotoxicity” value read?
The value was inactive: 12.9%.

With O=C(COC(=O)c1ccc2c(c1[N+](=O)[O-])C(=O)c1ccccc1C2=O)NC1CC1 as the molecule, how does the Potency read?
The Potency was inconclusive: 18.4 µM [falling, partial curve].

Which “activity change, negative = cytotoxicity” value does the source give for CCN(C(=O)c1cc2c(s1)-c1c(C)cccc1OC2)c1cc(C)ccc1C here?
Its value is inactive: 0.266%.

Which Potency does the source give for COC(=O)c1c(SCC(=O)Nc2cccc(C(F)(F)F)c2)[nH]c2ccccc2c1=O here?
Its Potency is inconclusive: 16.4 µM [falling, partial curve, poor fit].

For CCOc1ccc(S(=O)(=O)N(C)c2ccc(OCC(=O)NCC3CCCCC3)cc2)cc1, which Potency is on record?
Its Potency is inconclusive: 32.6 µM [falling, partial curve, poor fit].

With O=C(NCCC1=CCCCC1)c1c(O)nc2sccn2c1=O as the molecule, how does the Potency read?
The Potency was inconclusive: 16.4 µM [falling, partial curve, poor fit].

For CCN(CC)c1ccc2c(C)c(Cl)c(=O)oc2c1, which Potency is on record?
Its Potency is inconclusive: 20.6 µM [activator, single point].

For O=C(NC(NNc1ccc([N+](=O)[O-])cc1)(C(F)(F)F)C(F)(F)F)c1ccccc1Cl, which Potency is on record?
The Potency was inconclusive: 13 µM [falling, partial curve, poor fit].

Which “activity change, negative = cytotoxicity” value does the source give for O=S1(=O)[C@H]2CC3O[C@]2(C[C@@H]3c2ccc(F)cc2)CN1Cc1ccc(Cl)cc1 here?
Its value is inactive: -3.35%.

For CC1=CC(=C(C#N)c2nc3ccccc3s2)C=C(C)N1Cc1ccco1, which Potency is on record?
The Potency was inconclusive: 3.66 µM [activator, partial curve].

With O=C(NCC(c1ccc(Cl)cc1)N1CCCCC1)c1ccc(F)cc1 (centres undefined) as the molecule, how does the “activity change, negative = cytotoxicity” value read?
Its value is inactive: -2.99%.

Which Potency does the source give for COc1ccc(C(=O)NCC(c2cccnc2)N2CCN(c3ccc(F)cc3)CC2)cc1 (centres undefined) here?
Its Potency is inconclusive: 25.9 µM [falling, single point].

For O=C(Nc1cccc(-c2nc3ncccc3o2)c1)c1ccc(-c2cccc(Cl)c2Cl)o1, which “activity change, negative = cytotoxicity” value is on record?
The value was inactive: -6.22%.

For COc1cccc(C(=O)Nc2ccc(C(=O)NCC(C)C)cc2)c1, which Potency is on record?
The Potency was inconclusive: 32.6 µM [activator, partial curve, poor fit].

Which Potency does the source give for Cc1cccc(C(=O)N2CCN(c3ccc([N+](=O)[O-])c(NCc4ccco4)c3)CC2)c1 here?
The Potency was inconclusive: 23.1 µM [falling, partial curve, poor fit].

With C[C@]1(C(=O)NCCc2c[nH]c3ccccc23)C=C[C@@H](Cc2ccccc2)N1C(=O)c1ccccc1 as the molecule, how does the Potency read?
Its Potency is inconclusive: 16.4 µM [falling, single point].

Which Potency does the source give for COc1cc2c(cc1OC)/C(=C/C(=O)c1ccc([N+](=O)[O-])c(C)c1)NCC2 here?
The Potency was inconclusive: 16.4 µM [falling, partial curve, poor fit].

With Cc1ccc(C)c(-n2nnc(-c3nc(-c4ccc(Cl)cc4)no3)c2N)c1 as the molecule, how does the “activity change, negative = cytotoxicity” value read?
The value was inactive: 4.26%.

For CC1=NN(c2ccccc2)C(=O)C1/C=C1/NC(=S)NC1=O (centres undefined), which Potency is on record?
The Potency was inconclusive: 20.6 µM [falling, single point].

With C=C1C=CS(=O)(=O)N(Cc2ccccc2)C1 as the molecule, how does the “activity change, negative = cytotoxicity” value read?
Its value is inactive: -3.66%.

For C[C@]12CCC(=O)C[C@@H]1CC[C@@H]1[C@@H]2CC[C@]2(C)[C@@H](C(=O)COC(=O)CCC(=O)O)CC[C@@H]12, which Potency is on record?
The Potency was inconclusive: 23.1 µM [activator, partial curve, poor fit].

With C[C@@H]1CN([C@@H](C)CO)C(=O)Cc2cc(NC(=O)Nc3ccc(C(F)(F)F)cc3)ccc2O[C@@H]1CN(C)S(=O)(=O)c1ccc(Cl)cc1 as the molecule, how does the Potency read?
Its Potency is inconclusive: 20.6 µM [falling, partial curve, poor fit].

With O=C1C=CC(=O)N1CCCCCCCCCCN1C(=O)C=CC1=O as the molecule, how does the Potency read?
The Potency was inconclusive: 32.6 µM [falling, partial curve, poor fit].

For O=C(c1ccccc1O)N(Cc1ccccc1)Cc1cccs1, which “activity change, negative = cytotoxicity” value is on record?
Its value is inactive: 1.84%.

For CCN1/C(=C\C=C2\C(=O)N(c3ccccc3)C(=S)N2C)Sc2ccccc21, which Potency is on record?
The Potency was inconclusive: 1.16 µM [falling, partial curve, poor fit].

For CCOc1ccccc1NC(=O)CSC1=Nc2ccccc2C2=NC(CC(=O)NC3CCCCC3)C(=O)N12 (centres undefined), which Potency is on record?
Its Potency is inconclusive: 25.9 µM [falling, partial curve, poor fit].

With CSCCC(NC(=O)c1ccccc1)C(=O)NCCCn1nc(C)cc1C (centres undefined) as the molecule, how does the “activity change, negative = cytotoxicity” value read?
The value was inactive: -1.77%.

Which “activity change, negative = cytotoxicity” value does the source give for COc1ccc(S(=O)(=O)N2Cc3ccccc3CC2C(=O)Nc2nccs2)cc1 (centres undefined) here?
The value was inactive: -8.66%.

For O=C(C1CCN(Cc2ccc(Cl)cc2)CC1)N1CCN(C(c2ccccc2)c2ccccc2)CC1, which Potency is on record?
Its Potency is inconclusive: 32.6 µM [falling, partial curve, poor fit].

With Cc1nn(C)cc1/C=C/C(=O)c1ccccc1 as the molecule, how does the activity change, negative = cytotoxicity read?
The activity change, negative = cytotoxicity was inactive: 16.5% [at 1.84 µM].

With Cc1cc(NC(=O)c2cccnc2)cc(-c2nc3cc(Cl)ccc3o2)c1O as the molecule, how does the “activity change, negative = cytotoxicity” value read?
The value was inactive: 6.42%.

For CCOC(=O)N1CCC(NC(=O)c2cc(C(=O)Nc3cccc(C(F)(F)F)c3)ccc2CO)CC1, which Potency is on record?
The Potency was inconclusive: 23.1 µM [falling, single point].

Which Potency does the source give for O=[N+]([O-])c1cc([N+](=O)[O-])c2oc(-c3ccccc3)c(Br)c2c1O here?
Its Potency is inconclusive: 18.4 µM [falling, partial curve, poor fit].

For Brc1ccc(-c2ccc(CNCCSc3nnnn3-c3ccccc3)o2)cc1, which “activity change, negative = cytotoxicity” value is on record?
Its value is inactive: -5.23%.

With Cc1[nH]c2ccccc2c1C(=O)/C=C/c1ccccc1Cl as the molecule, how does the Potency read?
Its Potency is inconclusive: 29.1 µM [falling, partial curve, poor fit].

For CCN1/C(=C2/SC(=S)N(NC(C)=O)C2=O)Sc2ccc(OC)cc21, which Potency is on record?
Its Potency is inconclusive: 18.4 µM [falling, partial curve, poor fit].

Which Potency does the source give for CC(C)OC(=O)c1cc2c(ccn2C)n1CC(=O)N(Cc1ccccc1)c1ccccc1 here?
The Potency was inconclusive: 29.1 µM [falling, single point].

With Cc1cccc(C)c1OCC(=O)Nc1oc(-c2ccccc2)c(-c2ccccc2)c1C#N as the molecule, how does the Potency read?
Its Potency is inconclusive: 29.1 µM [falling, single point].

For COc1ccc(OC)c(NC(=O)CSc2n[nH]c(-c3ccccc3Cl)n2)c1, which “activity change, negative = cytotoxicity” value is on record?
The value was inactive: -0.532%.

Which Potency does the source give for CCCCc1n[nH]c(=S)n1Cc1ccccc1 here?
Its Potency is inconclusive: 23.1 µM [activator, partial curve].

For O=C1N=C(O)CN1/N=C/c1ccc(-c2ccc([N+](=O)[O-])cc2)o1, which Potency is on record?
Its Potency is inconclusive: 23.1 µM [falling, partial curve, poor fit].

With CCOCCCNC(=O)c1c(NC(=O)c2cc(=O)c3cc(C)c(C)cc3o2)sc2c1CCC2 as the molecule, how does the “activity change, negative = cytotoxicity” value read?
Its value is inactive: 0.15%.

Which Potency does the source give for CCOc1ccc(C2c3[nH]c4ccccc4c3C[C@H]3C(=O)N(C4CCN(Cc5ccccc5)CC4)CC(=O)N23)cc1OC (some centres undefined) here?
The Potency was inconclusive: 20.6 µM [falling, single point].

Which Potency does the source give for CCN(CC)CCN(Cc1cc2ccc(C)cc2[nH]c1=O)C(=S)Nc1ccccc1C(=O)OC here?
Its Potency is inconclusive: 14.6 µM [falling, partial curve, poor fit].

For N#Cc1ccccc1CSc1nnc(-c2ccccc2)o1, which “activity change, negative = cytotoxicity” value is on record?
Its value is inactive: 0.699%.

Which Potency does the source give for O=C(Oc1ccc2ccccc2c1)c1ccccc1 here?
Its Potency is inconclusive: 29.1 µM [falling, single point].

Which Potency does the source give for COc1ccc(C(=O)c2sc3nc(C)cc(-c4cccs4)c3c2N)cc1 here?
Its Potency is inconclusive: 2.91 µM [activator, full curve].

With CCN(CC)c1ccc(/C=N\NC(N)=O)cc1 as the molecule, how does the “activity change, negative = cytotoxicity” value read?
Its value is inactive: -6.38%.

Which Potency does the source give for CN1Cc2c(N3CCOCC3)nc3sc(C(=O)c4ccc(Br)cc4)c(N)c3c2CC1(C)C here?
Its Potency is inconclusive: 23.1 µM [falling, single point].

With CCC(c1nnnn1CCOC)N(Cc1cc2c(C)cc(C)cc2[nH]c1=O)CC1CCCO1 (centres undefined) as the molecule, how does the “activity change, negative = cytotoxicity” value read?
The value was inactive: 1.77%.

Which Potency does the source give for Fc1ccc(C2c3[nH]c4ccccc4c3CCN2Cc2cccn2-c2ncccn2)cc1 (centres undefined) here?
Its Potency is inconclusive: 18.4 µM [falling, partial curve, poor fit].

For COc1ccc(C(=O)NCc2nnc(SCC(=O)NCc3ccco3)o2)cc1OC, which “activity change, negative = cytotoxicity” value is on record?
The value was inactive: 8.52%.

Which Potency does the source give for O=C(O)C1(Nc2ccc([N+](=O)[O-])cc2[N+](=O)[O-])CCCC1 here?
The Potency was inconclusive: 29.1 µM [falling, single point].

With COC(=O)COc1ccc(S(=O)(=O)NCc2cccnc2)cc1C as the molecule, how does the Potency read?
The Potency was inconclusive: 25.9 µM [activator, partial curve, poor fit].
